The results in this text go back to PubChem BioAssay AID2685 (National Center for Advancing Translational Sciences (NCATS), 2010).

The other results are listed elsewhere or left out. The main result of the screen is listed elsewhere. These columns were measured beside it and carry no call. Compounds called inactive in the main read-out are mostly missing here. The note in brackets gives the kind of curve behind each potency; many fits are weak.

The assay in a line: qHTS Assay for Lipid Storage Modulators in Drosophila S3 Cells.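 As to cell number change: cells counted by Cell Tracker Red CMTPX staining in the red channel.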 Conditions: BODIPY lipid droplet fluorescence, 18-24 h; for cell number change: measured here: cell count max response, cells fed with added oleic acid. The essentials:
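Drosophila S3 cells loaded with oleic acid (400 uM, as added) and compounds at several concentrations; lipid droplets imaged by 488-nm laser-scanning cytometry, 500–530 nm intensity and object ratio to cell channel. Percent activity normalized to 20 uM Triacsin C.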

Setting [1] is: measured here: lipid fluorescence (Fed channel) AC50, cells fed with added oleic acid.
Where [2] appears, read: measured here: cell number channel AC50, cells fed with added oleic acid.

For `COc1ccc(NC(=O)C2CCCN(C(=O)Nc3ccc(OC)cc3)C2)cc1` (centres undefined), the AC50 under setting [1] was 1.3 µM [falling, full curve].
Turning to `Cc1[nH]c(=O)[nH]c(=O)c1S(=O)(=O)N1CCCCC1`, the cell number change is 1.32%.
Regarding `CCc1ccccc1N1C[C@@]23C=C[C@@H](O2)C(C(=O)OCC(C)C)[C@H]3C1=O` (some centres undefined), the cell number change was -5.42%. The AC50 under setting [2] was 0.0731 µM [falling, full curve, poor fit]. Besides, the AC50 under setting [1] was 0.00517 µM [falling, full curve, poor fit].
On to `CS(=O)(=O)N1CCN(C(=O)Cc2ccc([N+](=O)[O-])cc2)CC1`, for which, under setting [1], the AC50 is 3.98 µM [rising, partial curve].
Take `CC1CN(C(=O)CCC(=O)NC2CCN(Cc3ccccc3)CC2)c2ccccc2O1` (centres undefined): the cell number change is 36.9%. Besides, the AC50 under setting [2] is 8.2 µM [rising, partial curve, poor fit].
For the molecule `Cc1nc(NC(C)(C)CO)c([N+](=O)[O-])cc1[N+](=O)[O-]`, the cell number change is -47.7%. The concentration at half-maximal activity (AC50) under setting [2] is 1.3 µM [falling, full curve]. Moreover, the concentration at half-maximal activity (AC50) under setting [1] is 1.64 µM [falling, full curve, poor fit].
With `COc1ccc(N(C2=NCCCS2)S(=O)(=O)c2ccc(C(C)(C)C)cc2)cc1`, the cell number change is -12.2%. The AC50 under setting [1] is 0.00517 µM [falling, full curve, poor fit].
In the case of `O=C(COc1ccc2c(c1)CCC2)N1CCc2ccccc21`, the cell number change is -11.9%. For the same molecule, the AC50 under setting [1] is 5.17 µM [falling, single point].
`CC(c1ccco1)N(C(=O)c1ccc(F)cc1)c1ccccn1` (centres undefined): the cell number change worked out at 15.9%.
Regarding `COc1ccc(N(C(=O)c2snc(C(N)=O)c2N)C(C(=O)NCc2ccccc2)c2ccc(F)cc2)c(OC)c1` (centres undefined), the cell number change was 440%. Moreover, the AC50 under setting [2] was 29.1 µM [rising, single point]. Also, the AC50 under setting [1] was 29.1 µM [falling, single point].
On to `COC(=O)c1sccc1NC(=O)c1cc(-c2ccc(C)cc2)nc2ccccc12`, for which the cell number change turned out to be 44.4%. Moreover, the AC50 under setting [2] was 6.51 µM [rising, full curve, poor fit].
For `O=C1c2c(O)cc(O)cc2O[C@@]12c1c(cc(O)c3c1O[C@H](c1ccc(O)cc1)[C@@H](O)C3)O[C@@H]2c1ccc(O)cc1`, the cell number change was -31.2%. Further, the AC50 under setting [2] was 9.2 µM [falling, full curve, poor fit].
With `Cc1ccc(C(=O)NCc2cccnc2)cc1S(=O)(=O)Nc1ccccc1`, under setting [1], the concentration at half-maximal activity (AC50) is 0.00461 µM [rising, full curve, poor fit].
Turning to `CCOC(=O)C1CCN(C(=O)CN2C(=O)COc3ccc(C(C)(C)C)cc32)CC1`, the cell number change is -28.1%.
As for `CCC(C(=O)NC1CCCC1)N(Cc1ccc2c(c1)OCO2)C(=O)c1snc(C(N)=O)c1N` (centres undefined), the cell number change is -1.46%. Under setting [1], the half-maximal activity concentration (AC50) is 1.64 µM [rising, partial curve, poor fit].
Regarding `CC(NC(=O)c1cc2cc(Cl)ccc2oc1=N)c1ccccc1` (centres undefined), the cell number change is -34.2%. The AC50 under setting [1] was 29.1 µM [falling, single point].
For the molecule `CCC(C)C(NC(N)=O)C(=O)NC1CCC(C)CC1` (centres undefined), the cell number change is -18.4%. Moreover, under setting [2], the concentration at half-maximal activity (AC50) is 0.0291 µM [falling, full curve, poor fit].
With `CC(C)(C)NCC(O)COc1c(F)cc(Br)cc1F` (centres undefined), the concentration at half-maximal activity (AC50) under setting [1] was 23.1 µM [falling, partial curve].
With `Cc1cc(C)c(OCCCCN2CCC(C)CC2)c(Br)c1`, the cell number change was -41.8%. Further, the AC50 under setting [2] was 16.4 µM [falling, single point].
For `O=C(O)c1c[nH]ccc1=O`, the cell number change amounted to 2.58%. Further, under setting [1], the concentration at half-maximal activity (AC50) was 4.11 µM [falling, single point].
Turning to `Cc1nn(-c2ccccc2)c(Cl)c1C(=O)OC(C)C(=O)Nc1ccc2c(c1)OCO2` (centres undefined), the cell number change was found to be 13.7%. Moreover, under setting [1], the AC50 is 0.259 µM [rising, single point].
For `O=C(C/C=N\OCc1ccc([N+](=O)[O-])cc1)Nc1ccccc1`, the cell number change was -13.5%. The half-maximal activity concentration (AC50) under setting [2] was 0.092 µM [falling, full curve, poor fit]. The half-maximal activity concentration (AC50) under setting [1] was 0.116 µM [falling, full curve, poor fit].
As for `O=C(NCc1ccc(F)cc1)c1cccc2c1C(=O)c1ccc(Cl)cc1S2(=O)=O`, the cell number change came out at 14.3%. Under setting [1], the AC50 was 0.231 µM [rising, single point].
In the case of `Cc1ccccc1CN(C)CC(=O)NC(C)CCc1ccccc1` (centres undefined), the cell number change is -9.05%.
Take `CCN(CC)S(=O)(=O)c1cccc(-c2nn(-c3ccccc3)cc2/C=C(\C#N)C(=O)NCc2ccco2)c1`: the cell number change came out at 2.56%. Also, under setting [1], the half-maximal activity concentration (AC50) is 0.116 µM [rising, full curve, poor fit].
As for `N#Cc1nc(Cc2cccc3ccccc23)oc1NCCCn1ccnc1`, the AC50 was 0.103 µM [rising, full curve, poor fit] under setting [2] and 0.184 µM [rising, full curve, poor fit] under setting [1].
For the molecule `O=C(/C=C/c1ccco1)Nc1ccc(Cl)c(S(=O)(=O)N2CCOCC2)c1`, the cell number change was -25.3%. The half-maximal activity concentration (AC50) under setting [1] was 0.366 µM [falling, full curve].
For `CC(C)(C)OC(=O)N1CCC[C@H]1c1nnc(SC/C=C/c2ccccc2)o1`, the cell number change was -18.9%. In addition, under setting [1], the concentration at half-maximal activity (AC50) was 29.1 µM [falling, single point].
Turning to `COCCCNC(=O)CS(=O)(=O)Cc1nc(-c2ccccc2C)oc1C`, the AC50 under setting [1] is 6.51 µM [falling, single point].
In the case of `N#Cc1cccc(NC(=O)c2cncn2-c2ccccc2)c1`, under setting [2], the half-maximal activity concentration (AC50) is 6.51 µM [rising, single point].
Turning to `Cc1cccc(C(=O)N[C@H](C(=O)OCC(=O)NC(=O)c2cccn2C)C(C)C)c1`, the cell number change is 12.1%. Besides, under setting [1], the half-maximal activity concentration (AC50) was 10.3 µM [rising, partial curve, poor fit].
`Cn1c(=O)[nH]c(=O)c2c1nc(N1CCCC1)n2CCCSc1nc2ccccc2o1`: the cell number change was -6.25%.
With `CN(C(=O)CSc1nc(C2CC2)nc2ccccc12)c1nc(-c2ccccc2)cs1`, the cell number change worked out at 15.5%. Further, the concentration at half-maximal activity (AC50) under setting [1] was 29.1 µM [rising, partial curve, poor fit].
With `O=C(c1ccco1)N1CCN(C(c2ccc(F)cc2)c2nnnn2Cc2cccs2)CC1` (centres undefined), the cell number change stood at 12.6%. Also, the AC50 under setting [1] was 0.731 µM [rising, full curve, poor fit].
Consider `CCOc1cc(/C=N\Nc2nc(-c3ccc(C)cc3)c(NC(C)=O)s2)ccc1O`, for which the cell number change amounted to 28.3%. In addition, the concentration at half-maximal activity (AC50) under setting [2] is 0.00461 µM [rising, full curve, poor fit]. In addition, the AC50 under setting [1] was 7.31 µM [rising, partial curve].
`Cc1ccc(C(C#N)N2CCOCC2)cc1` (centres undefined): the cell number change turned out to be 36.8%. Under setting [2], the AC50 is 25.9 µM [rising, single point]. For the same molecule, the concentration at half-maximal activity (AC50) under setting [1] was 29.1 µM [rising, single point].
Take `CCOC(=O)c1c(CC(C)C)csc1/N=C/C1C(=O)CC(C)(C)CC1=O`: the cell number change was found to be 18.5%. For the same molecule, the AC50 under setting [1] was 10.3 µM [rising, partial curve].
Regarding `N#CC(C#N)=C1C=CC=CN1/C(=C\c1ccco1)C(=O)c1ccc(-c2ccccc2)cc1`, the cell number change was -60.8%. Moreover, under setting [2], the half-maximal activity concentration (AC50) was 7.31 µM [falling, partial curve]. In addition, the concentration at half-maximal activity (AC50) under setting [1] is 4.11 µM [falling, partial curve].
Regarding `O=C(O)c1ccc(S(=O)(=O)/N=C2\C=C(Nc3ccccc3F)C(=O)c3ccccc32)cc1`, the AC50 under setting [1] was 8.2 µM [falling, partial curve].
As to `CCOC(=O)c1sc(NC(=O)c2ccccc2F)c(C(N)=O)c1C`, the cell number change was found to be 114%. Besides, the AC50 under setting [2] is 1.84 µM [rising, full curve]. For the same molecule, under setting [1], the AC50 was 1.64 µM [rising, full curve].
On to `O=c1oc2ccccc2c(Nc2cccc3cccnc23)c1[N+](=O)[O-]`, for which the cell number change was -27%.
Turning to `COc1cc(OC)cc(C(=O)NC2CCN(C(=O)N3c4ccccc4Sc4ccccc43)CC2)c1`, the cell number change is -26%. Besides, under setting [1], the half-maximal activity concentration (AC50) was 29.1 µM [falling, single point].
Consider `CCN(CC)c1ccc(N=Cc2c(C)[nH]c3ccccc23)cc1`, for which the cell number change is -45.4%. The AC50 under setting [2] is 29.1 µM [falling, single point]. For the same molecule, the half-maximal activity concentration (AC50) under setting [1] is 18.4 µM [falling, single point].
As to `COc1ccccc1COCC(O)CN(Cc1ccco1)Cc1ccccc1O` (centres undefined), the cell number change was found to be 3.4%. For the same molecule, the concentration at half-maximal activity (AC50) under setting [1] was 18.4 µM [rising, single point].
For the molecule `CC(C)Oc1ccc(S(=O)(=O)N2CCCCC2)cc1NC(=O)C1CCC1`, the cell number change amounted to 36.2%. The half-maximal activity concentration (AC50) under setting [2] is 1.84 µM [rising, partial curve]. The concentration at half-maximal activity (AC50) under setting [1] was 2.59 µM [rising, full curve].
`O=C(c1ccc2c(c1)OCO2)N1CCN(S(=O)(=O)c2ccc(Br)cc2Cl)CC1`: the cell number change is -7.63%. In addition, under setting [1], the AC50 is 3.66 µM [rising, full curve].
Take `CCN(CC)S(=O)(=O)c1ccc(Cl)c(C(=O)OC)c1`: the cell number change was found to be 20.7%.
For `Cc1cc(C)n(C(N)=NC(=O)c2ccc([N+](=O)[O-])cc2)n1`, the cell number change was -43.3%. Besides, the AC50 under setting [2] is 18.4 µM [falling, single point]. For the same molecule, under setting [1], the concentration at half-maximal activity (AC50) is 29.1 µM [falling, single point].
`Cc1cccc(NC(=S)NC2CC3C=CC2C3)c1` (centres undefined): the cell number change was 40.9%. For the same molecule, the AC50 under setting [2] was 9.2 µM [rising, single point]. Moreover, under setting [1], the AC50 was 23.1 µM [rising, single point].
Consider `CCOC(=O)c1sc(NC(=O)c2sccc2C)cc1C`, for which the half-maximal activity concentration (AC50) by setting is: under setting [2], 2.06 µM [rising, partial curve]; under setting [1], 1.46 µM [rising, partial curve].
In the case of `CSc1ccccc1C(=O)N1CCC(n2nccc2NC(=O)C(C)(C)C)CC1`, the cell number change was found to be 11.6%.
For the molecule `CCOC(=O)CSC1=C(C#N)C(c2ccccc2OCC)C(C#N)C(=O)N1` (centres undefined), the AC50 runs as follows: under setting [2], 1.3 µM [rising, single point]; under setting [1], 0.411 µM [falling, full curve, poor fit].
As to `COc1ccc(C(=O)[C@H]2[C@H]3C(=O)N(c4ccc(OC(C)=O)cc4)C(=O)[C@H]3C3C=CC=NN32)cc1` (some centres undefined), the cell number change came out at 27.9%. Besides, the AC50 under setting [1] is 4.11 µM [rising, single point].
Take `CCN1CCN(c2cc3c(cc2F)c(=O)c(C(=O)O)cn3C2CC2)CC1`: the cell number change was -53.5%. Also, the AC50 under setting [2] is 0.164 µM [falling, full curve]. In addition, the half-maximal activity concentration (AC50) under setting [1] is 0.164 µM [falling, full curve].
With `FC(F)Oc1ccc(NC(=S)NCc2nc3ccccc3[nH]2)cc1`, the cell number change was determined as 3.75%.
Regarding `O=C1COc2ccc(C(=O)COC(=O)c3ccc(S(=O)(=O)C(F)F)cc3)cc2N1`, the cell number change was found to be 31.3%. Also, the AC50 under setting [2] is 29.1 µM [rising, single point].

Usually AC50 stands for the concentration at which the activity in the assay is half-maximal. A lower AC50 goes with activity at low concentration.
